Some entries share one result that the patent states for a list of compounds.
The molecules below were run on Curtobacterium flaccumfaciens pv. poinsettiae (assay: Filter paper disc assay, Curtobacterium flaccumfaciens pv. poinsettiae). Details: 20, 40, and 80 μg/disc, Kings medium B plates.
Format: cell-based
Protocol: Antimicrobial activity of compounds was determined against a group of bacterial pathogens, using a broth microdilution assay.Pathogens tested included Staphylococcus aureus, Streptococcus pyogenes, Escherichia coli, Serratia marcescens, Proteus vulgaris, Klebsiella pneumoniae, Salmonella typhi, and Pseudomonas aeruginosa. Activity against plant pathogenic bacteria was tested by applying acetone solutions of compounds to 14 mm Whatman No. 1 filter paper discs, drying and placing four discs/plate on freshly inoculated Kings medium B plates. Pseudomonas cepacia, P. cichorii, P. fluorescens, P. syringae pv. phaseolicola, P. viridiflava, and Xanthomonas campestris were exposed to discs containing 20 μg of compound; Curtobacterium flaccumfaciens pv. poinsettiae (formerly Corynebacterium poinsettiae) was tested at 20, 40, and 80 μg/disc. Using a similar assay procedure, Alternaria citri, Colletotrichum gloeosporioides, Diplodia natalensis, Fusarium solani, F. oxysporum, Geotrichum candidium, Phomopsis citri, and Phytophthora parasitica were tested to determine the antifungal properties of the compounds.
They were, however, effective against gram-positive bacteria.

Compound	inhibition of Curtobacterium flaccumfaciens pv. poinsettiae
COc1cc(O)c2c(c1O)C(=O)C(CC(C)O)C(CO)C2=O (stereo not drawn) [Compound 1, 2,3-Dihydro-5,8-dihydroxy-6-methoxy-2-hydroxymethyl-3-(2-hydroxypropyl)-1,4-naphthalenedione]	inhibited
COC1=CC(=O)c2c(O)c(CO)c3c(c2C1=O)OC(C)C3 (stereo not drawn) [Compound 2, 2,3-Dihydro-5-hydroxy-4-hydroxymethyl-8-methoxy-2-methyl-naphtho [1,2-b]furan-6,9-dione]	inhibited
COC1=CC(=O)c2c(O)c(CO)c(CC(C)O)c(O)c2C1=O (stereo not drawn) [Compound 3, 5,8-Dihydroxy-2-methoxy-6-hydroxymethyl-7-(2-hydroxypropyl)-1,4-naphthalenedione]	inhibited
